The list shows a part of the results.
Key:
Assay in all cases: glycan array binding signal (z-score within array); higher = stronger binding
Details in all cases: glycan notation: IUPAC condensed, linker removed
[1] = target: GlcNAc(b1-2)Gal(b1-3)GalNAc
Outline: (§1)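 The Consortium for Functional Glycomics database supplied 3228 glycan arrays, of which those lacking an available protein sequence were dropped. The binding signal, a within-array Z-score, was averaged across arrays of the same protein sequence and across linkers. Negative scores can be read as non-binding.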

[2] = target: GlcNAc(b1-2)Man(a1-3)[GlcNAc(b1-2)Man(a1-6)]Man(b1-4)GlcNAc(b1-4)GlcNAc
Outline: as §1

[3] = target: GlcNAc(b1-2)Man(a1-3)[GlcNAc(b1-2)Man(a1-6)]Man(b1-4)GlcNAc(b1-4)[Fuc(a1-6)]GlcNAc
Outline: as §1

[4] = target: GlcNAc(b1-2)Man(a1-3)[GlcNAc(b1-4)][GlcNAc(b1-2)Man(a1-6)]Man(b1-4)GlcNAc(b1-4)GlcNAc
Outline: as §1

[5] = target: GlcNAc(b1-2)Man(a1-3)[GlcNAc(b1-4)][GlcNAc(b1-2)Man(a1-6)]Man(b1-4)GlcNAc(b1-4)[Fuc(a1-6)]GlcNAc
Outline: as §1

[6] = target: GlcNAc(b1-2)[GlcNAc(b1-4)]Man(a1-3)[GlcNAc(b1-2)Man(a1-6)]Man(b1-4)GlcNAc(b1-4)GlcNAc
Outline: as §1

[7] = target: GlcNAc(b1-2)[GlcNAc(b1-4)]Man(a1-3)[GlcNAc(b1-4)][GlcNAc(b1-2)Man(a1-6)]Man(b1-4)GlcNAc(b1-4)GlcNAc
Outline: as §1

[8] = target: GlcNAc(b1-2)[GlcNAc(b1-4)]Man(a1-3)[GlcNAc(b1-4)][GlcNAc(b1-2)[GlcNAc(b1-6)]Man(a1-6)]Man(b1-4)GlcNAc(b1-4)GlcNAc
Outline: as §1

[9] = target: GlcNAc(b1-2)[GlcNAc(b1-4)]Man(a1-3)[GlcNAc(b1-4)][GlcNAc(b1-2)[GlcNAc(b1-6)]Man(a1-6)]Man(b1-4)GlcNAc(b1-4)[Fuc(a1-6)]GlcNAc
Outline: as §1

[10] = target: GlcNAc(b1-2)[GlcNAc(b1-6)]Man(a1-6)[GlcNAc(b1-2)Man(a1-3)]Man(b1-4)GlcNAc(b1-4)GlcNAc
Outline: as §1

[11] = target: GlcNAc(b1-2)[GlcNAc(b1-6)]Man(a1-6)[GlcNAc(b1-2)Man(a1-3)]Man(b1-4)GlcNAc(b1-4)[Fuc(a1-6)]GlcNAc
Outline: as §1

[12] = target: GlcNAc(b1-2)[GlcNAc(b1-6)]Man(a1-6)[GlcNAc(b1-4)][GlcNAc(b1-2)Man(a1-3)]Man(b1-4)GlcNAc(b1-4)GlcNAc
Outline: as §1

GlcNAc(b1-3)Fuc = target: GlcNAc(b1-3)Fuc
Outline: as §1

GlcNAc(b1-3)Gal = target: GlcNAc(b1-3)Gal
Outline: as §1

[13] = target: GlcNAc(b1-3)Gal(b1-3)GalNAc
Outline: as §1

GlcNAc(b1-3)Gal(b1-4)Glc = target: GlcNAc(b1-3)Gal(b1-4)Glc
Outline: as §1

[14] = target: GlcNAc(b1-3)Gal(b1-4)GlcNAc
Outline: as §1

[15] = target: GlcNAc(b1-3)Gal(b1-4)GlcNAc(b1-2)Man(a1-3)[GlcNAc(b1-3)Gal(b1-4)GlcNAc(b1-2)Man(a1-6)]Man(b1-4)GlcNAc(b1-4)GlcNAc
Outline: as §1

[16] = target: GlcNAc(b1-3)Gal(b1-4)GlcNAc(b1-2)Man(a1-3)[GlcNAc(b1-3)Gal(b1-4)GlcNAc(b1-2)Man(a1-6)]Man(b1-4)GlcNAc(b1-4)[Fuc(a1-6)]GlcNAc
Outline: as §1

[17] = target: GlcNAc(b1-3)Gal(b1-4)GlcNAc(b1-2)[GlcNAc(b1-3)Gal(b1-4)GlcNAc(b1-6)]Man(a1-6)[GlcNAc(b1-3)Gal(b1-4)GlcNAc(b1-2)Man(a1-3)]Man(b1-4)GlcNAc(b1-4)GlcNAc
Outline: as §1

[18] = target: GlcNAc(b1-3)Gal(b1-4)GlcNAc(b1-3)Gal(b1-4)GlcNAc
Outline: as §1

[19] = target: GlcNAc(b1-3)Gal(b1-4)GlcNAc(b1-3)Gal(b1-4)GlcNAc(b1-2)Man(a1-3)[GlcNAc(b1-3)Gal(b1-4)GlcNAc(b1-3)Gal(b1-4)GlcNAc(b1-2)Man(a1-6)]Man(b1-4)GlcNAc(b1-4)GlcNAc
Outline: as §1

[20] = target: GlcNAc(b1-3)Gal(b1-4)GlcNAc(b1-3)Gal(b1-4)GlcNAc(b1-2)Man(a1-3)[GlcNAc(b1-3)Gal(b1-4)GlcNAc(b1-3)Gal(b1-4)GlcNAc(b1-2)Man(a1-6)]Man(b1-4)GlcNAc(b1-4)[Fuc(a1-6)]GlcNAc
Outline: as §1

[21] = target: GlcNAc(b1-3)Gal(b1-4)GlcNAc(b1-3)Gal(b1-4)GlcNAc(b1-2)[GlcNAc(b1-3)Gal(b1-4)GlcNAc(b1-3)Gal(b1-4)GlcNAc(b1-6)]Man(a1-6)[GlcNAc(b1-3)Gal(b1-4)GlcNAc(b1-3)Gal(b1-4)GlcNAc(b1-2)Man(a1-3)]Man(b1-4)GlcNAc(b1-4)[Fuc(a1-6)]GlcNAc
Outline: as §1

[22] = target: GlcNAc(b1-3)Gal(b1-4)GlcNAc(b1-3)Gal(b1-4)GlcNAc(b1-3)Gal(b1-4)GlcNAc(b1-2)Man(a1-3)[GlcNAc(b1-3)Gal(b1-4)GlcNAc(b1-3)Gal(b1-4)GlcNAc(b1-3)Gal(b1-4)GlcNAc(b1-2)Man(a1-6)]Man(b1-4)GlcNAc(b1-4)GlcNAc
Outline: as §1

[23] = target: GlcNAc(b1-3)Gal(b1-4)GlcNAc(b1-3)Gal(b1-4)GlcNAc(b1-3)Gal(b1-4)GlcNAc(b1-2)Man(a1-3)[GlcNAc(b1-3)Gal(b1-4)GlcNAc(b1-3)Gal(b1-4)GlcNAc(b1-3)Gal(b1-4)GlcNAc(b1-2)Man(a1-6)]Man(b1-4)GlcNAc(b1-4)[Fuc(a1-6)]GlcNAc
Outline: as §1

[24] = target: GlcNAc(b1-3)Gal(b1-4)GlcNAc(b1-3)Gal(b1-4)GlcNAc(b1-3)Gal(b1-4)GlcNAc(b1-2)[GlcNAc(b1-3)Gal(b1-4)GlcNAc(b1-3)Gal(b1-4)GlcNAc(b1-3)Gal(b1-4)GlcNAc(b1-6)]Man(a1-6)[GlcNAc(b1-3)Gal(b1-4)GlcNAc(b1-3)Gal(b1-4)GlcNAc(b1-3)Gal(b1-4)GlcNAc(b1-2)Man(a1-3)]Man(b1-4)GlcNAc(b1-4)[Fuc(a1-6)]GlcNAc
Outline: as §1

[25] = target: GlcNAc(b1-3)Gal(b1-4)GlcNAc(b1-3)Gal(b1-4)GlcNAc(b1-3)Gal(b1-4)GlcNAc(b1-3)Gal(b1-4)GlcNAc(b1-2)Man(a1-3)[GlcNAc(b1-3)Gal(b1-4)GlcNAc(b1-3)Gal(b1-4)GlcNAc(b1-3)Gal(b1-4)GlcNAc(b1-3)Gal(b1-4)GlcNAc(b1-2)Man(a1-6)]Man(b1-4)GlcNAc(b1-4)GlcNAc
Outline: as §1

[26] = target: GlcNAc(b1-3)Gal(b1-4)GlcNAc(b1-3)Gal(b1-4)GlcNAc(b1-3)Gal(b1-4)GlcNAc(b1-3)Gal(b1-4)GlcNAc(b1-2)Man(a1-3)[GlcNAc(b1-3)Gal(b1-4)GlcNAc(b1-3)Gal(b1-4)GlcNAc(b1-3)Gal(b1-4)GlcNAc(b1-3)Gal(b1-4)GlcNAc(b1-2)Man(a1-6)]Man(b1-4)GlcNAc(b1-4)[Fuc(a1-6)]GlcNAc
Outline: as §1

[27] = target: GlcNAc(b1-3)Gal(b1-4)GlcNAc(b1-3)Gal(b1-4)GlcNAc(b1-3)Gal(b1-4)GlcNAc(b1-3)Gal(b1-4)GlcNAc(b1-2)[GlcNAc(b1-3)Gal(b1-4)GlcNAc(b1-3)Gal(b1-4)GlcNAc(b1-3)Gal(b1-4)GlcNAc(b1-3)Gal(b1-4)GlcNAc(b1-6)]Man(a1-6)[GlcNAc(b1-3)Gal(b1-4)GlcNAc(b1-3)Gal(b1-4)GlcNAc(b1-3)Gal(b1-4)GlcNAc(b1-3)Gal(b1-4)GlcNAc(b1-2)Man(a1-3)]Man(b1-4)GlcNAc(b1-4)[Fuc(a1-6)]GlcNAc
Outline: as §1

B1: Thrombomodulin Extracellular (Mus musculus), P15306 (protein)
chain: MLGIFFLGVLAPASLGLSALAKLQPTGSQCVEHECFALFQGPATFLDASQACQRLQGHLMTVRSSVAADVISLLLSQSSMDLGPWIGLQLPQGCDDPVHLGPLRGFQWVTGDNHTSYSRWARPNDQTAPLCGPLCVTVSTATEAAPGEPAWEEKPCETETQGFLCEFYFTASCRPLTVNTRDPEAAHISSTYNTPFGVSGADFQTLPVGSSAAVEPLGLELVCRAPPGTSEGHWAWEATGAWNCSVENGGCEYLCNRSTNEPRCLCPRDMDLQADGRSCARPVVQSCNELCEHFCVSNAEVPGSYSCMCETGYQLAADGHRCEDVDDCKQGPNPCPQLCVNTKGGFECFCYDGYELVDGECVELLDPCFGSNCEFQCQPVSPTDYRCICAPGFAPKPDEPHKCEMFCNETSCPADCDPNSPTVCECPEGFILDEGSVCTDIDECSQGECFTSECRNFPGSYECICGPDTALAGQISKDCDPIPVREDTKEEEGSGEPPVSPTPGSPTGPPSARPVHSGVLIGISIASLSLVVALLALLCHLRKKQGAARAELEYKCASSAKEVVLQHVRTDRTLQKF
[1]
  glycan array binding signal (z-score): -0.96
[2]
  glycan array binding signal (z-score): -0.469
[3]
  glycan array binding signal (z-score): -0.307
[4]
  glycan array binding signal (z-score): -0.688
[5]
  glycan array binding signal (z-score): -0.159
[6]
  glycan array binding signal (z-score): 0.907
[7]
  glycan array binding signal (z-score): 0.101
[8]
  glycan array binding signal (z-score): -0.626
[9]
  glycan array binding signal (z-score): 0.536
[10]
  glycan array binding signal (z-score): -2.15
[11]
  glycan array binding signal (z-score): 1.44
[12]
  glycan array binding signal (z-score): 0.802
GlcNAc(b1-3)Fuc
  glycan array binding signal (z-score): -0.565
GlcNAc(b1-3)Gal
  glycan array binding signal (z-score): -0.546
[13]
  glycan array binding signal (z-score): 0.123
GlcNAc(b1-3)Gal(b1-4)Glc
  glycan array binding signal (z-score): 0.942
[14]
  glycan array binding signal (z-score): -0.11
[15]
  glycan array binding signal (z-score): 0.223
[16]
  glycan array binding signal (z-score): 0.834
[17]
  glycan array binding signal (z-score): -0.238
[18]
  glycan array binding signal (z-score): 0.57
[19]
  glycan array binding signal (z-score): 0.261
[20]
  glycan array binding signal (z-score): 0.584
[21]
  glycan array binding signal (z-score): 0.325
[22]
  glycan array binding signal (z-score): 2.08
[23]
  glycan array binding signal (z-score): 1.85
[24]
  glycan array binding signal (z-score): 0.27
[25]
  glycan array binding signal (z-score): -0.332
[26]
  glycan array binding signal (z-score): 1.43
[27]
  glycan array binding signal (z-score): 2.07

Source: the supplement of paper PMC8728848
